In paper PMC5603829 one finds binding data, which are given here for one substance.

Chains of the proteins cited; added tags and fusions are not shown.
UniProt Q09472: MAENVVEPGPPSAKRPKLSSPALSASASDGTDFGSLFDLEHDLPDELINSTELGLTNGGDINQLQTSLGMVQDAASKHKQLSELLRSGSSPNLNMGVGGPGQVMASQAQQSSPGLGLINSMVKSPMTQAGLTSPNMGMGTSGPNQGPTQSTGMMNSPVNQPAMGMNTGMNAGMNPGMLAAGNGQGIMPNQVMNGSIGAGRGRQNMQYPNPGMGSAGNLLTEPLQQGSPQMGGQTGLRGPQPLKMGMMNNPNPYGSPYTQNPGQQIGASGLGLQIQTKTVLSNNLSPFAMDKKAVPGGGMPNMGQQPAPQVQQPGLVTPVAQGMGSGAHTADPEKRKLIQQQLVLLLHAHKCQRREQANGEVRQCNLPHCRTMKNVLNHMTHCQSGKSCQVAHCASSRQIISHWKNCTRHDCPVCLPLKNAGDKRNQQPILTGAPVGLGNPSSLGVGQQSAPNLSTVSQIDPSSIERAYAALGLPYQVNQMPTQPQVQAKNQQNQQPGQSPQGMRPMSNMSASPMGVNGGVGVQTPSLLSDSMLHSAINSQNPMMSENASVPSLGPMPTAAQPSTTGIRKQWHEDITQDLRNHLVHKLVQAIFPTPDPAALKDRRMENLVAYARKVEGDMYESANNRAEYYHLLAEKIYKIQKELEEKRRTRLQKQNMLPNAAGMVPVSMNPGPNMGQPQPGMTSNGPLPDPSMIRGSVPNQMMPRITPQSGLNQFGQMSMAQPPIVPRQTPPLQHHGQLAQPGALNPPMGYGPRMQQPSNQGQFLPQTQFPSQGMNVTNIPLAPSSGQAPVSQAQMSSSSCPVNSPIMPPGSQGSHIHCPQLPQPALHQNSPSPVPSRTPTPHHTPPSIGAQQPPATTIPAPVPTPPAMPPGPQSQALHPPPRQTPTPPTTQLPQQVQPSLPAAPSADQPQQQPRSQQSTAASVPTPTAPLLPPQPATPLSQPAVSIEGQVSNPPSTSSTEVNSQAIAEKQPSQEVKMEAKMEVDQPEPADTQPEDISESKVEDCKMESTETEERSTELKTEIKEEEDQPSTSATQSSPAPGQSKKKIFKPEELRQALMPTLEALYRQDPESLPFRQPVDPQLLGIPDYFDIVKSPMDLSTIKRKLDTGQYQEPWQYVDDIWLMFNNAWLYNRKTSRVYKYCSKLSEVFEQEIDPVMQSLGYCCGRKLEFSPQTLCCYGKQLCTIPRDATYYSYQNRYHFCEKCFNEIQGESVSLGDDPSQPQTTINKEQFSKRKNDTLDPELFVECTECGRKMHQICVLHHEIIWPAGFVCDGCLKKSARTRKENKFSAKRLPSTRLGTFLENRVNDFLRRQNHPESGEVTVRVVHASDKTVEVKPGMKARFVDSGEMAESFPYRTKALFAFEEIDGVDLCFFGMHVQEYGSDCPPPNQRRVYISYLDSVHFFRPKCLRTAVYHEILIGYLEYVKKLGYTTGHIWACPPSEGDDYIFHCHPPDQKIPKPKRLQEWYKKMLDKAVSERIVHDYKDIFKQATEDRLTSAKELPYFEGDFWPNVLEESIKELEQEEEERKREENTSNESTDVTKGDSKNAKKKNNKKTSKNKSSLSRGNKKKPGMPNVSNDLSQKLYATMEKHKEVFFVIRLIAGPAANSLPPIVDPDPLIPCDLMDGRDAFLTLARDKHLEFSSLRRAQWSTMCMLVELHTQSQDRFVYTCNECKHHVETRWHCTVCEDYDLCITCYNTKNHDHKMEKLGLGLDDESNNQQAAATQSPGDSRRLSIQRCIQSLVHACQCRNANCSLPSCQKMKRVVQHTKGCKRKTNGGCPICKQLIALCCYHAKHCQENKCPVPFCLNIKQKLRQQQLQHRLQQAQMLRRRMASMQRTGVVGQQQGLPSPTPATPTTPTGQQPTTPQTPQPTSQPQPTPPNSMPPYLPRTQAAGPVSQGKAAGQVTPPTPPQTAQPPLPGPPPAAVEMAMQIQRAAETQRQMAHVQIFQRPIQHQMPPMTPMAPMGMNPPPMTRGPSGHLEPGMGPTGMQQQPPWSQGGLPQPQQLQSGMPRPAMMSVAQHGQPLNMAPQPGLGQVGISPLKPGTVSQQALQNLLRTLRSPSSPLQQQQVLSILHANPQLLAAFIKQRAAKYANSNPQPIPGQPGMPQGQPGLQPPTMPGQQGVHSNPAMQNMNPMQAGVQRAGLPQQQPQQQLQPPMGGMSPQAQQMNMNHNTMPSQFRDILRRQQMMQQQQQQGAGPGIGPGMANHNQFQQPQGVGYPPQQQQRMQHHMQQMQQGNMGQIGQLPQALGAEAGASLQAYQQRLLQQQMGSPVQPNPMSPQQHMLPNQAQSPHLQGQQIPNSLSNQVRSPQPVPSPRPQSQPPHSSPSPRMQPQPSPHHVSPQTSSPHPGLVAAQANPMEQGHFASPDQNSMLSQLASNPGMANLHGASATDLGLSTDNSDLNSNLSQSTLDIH
UniProt P49407: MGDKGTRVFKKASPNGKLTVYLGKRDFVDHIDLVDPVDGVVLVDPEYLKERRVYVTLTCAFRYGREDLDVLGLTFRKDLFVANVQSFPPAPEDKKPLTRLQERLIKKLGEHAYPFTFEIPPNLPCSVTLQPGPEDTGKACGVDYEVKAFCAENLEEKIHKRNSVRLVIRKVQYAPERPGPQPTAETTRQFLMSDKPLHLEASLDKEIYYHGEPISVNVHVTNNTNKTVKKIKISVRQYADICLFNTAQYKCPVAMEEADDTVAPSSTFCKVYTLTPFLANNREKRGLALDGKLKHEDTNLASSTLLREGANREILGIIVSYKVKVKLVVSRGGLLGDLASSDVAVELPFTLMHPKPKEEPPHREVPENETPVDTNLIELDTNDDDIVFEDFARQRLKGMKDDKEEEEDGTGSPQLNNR

No constants are given. Whether binding was seen depends on the method and setting. In cells and extracts the contact can be indirect. Some entries that bind do so weakly or less than the wild type.

The experiment concerns the target P300 (human (endogenous in Reh)) (UniProt Q09472). The experiment is described as follows: co-IP; protein extracted from Reh cells infected with scrambled shRNA (R-Scram) or Si-β-Arrestin1 (R-Siβ1) lentivirus; for P300 with Sp1 also Reh cells transfected with shRNA-P300; which protein was precipitated is not told.

For the substance β-Arrestin1 (from UniProt P49407 1-418), the binding result is “binds”.
